Literature values in patent US10822587B2, “T cell balance gene expression, compositions of matters and methods of use thereof” (The Broad Institute, Inc., priority 2013, dated 2020).
For at least one compound, name, drawing or mass did not settle the structure.

Columns and labels:
Th17 differentiation = details: mouse, in vivo; cited from earlier work
Tsc22d3 = details: other cells (not Th17); cited from earlier work

C[C@@H]1C[C@H]2[C@@H]3CCC4=CC(=O)C=C[C@]4(C)[C@@]3(F)[C@@H](O)C[C@]2(C)[C@@]1(O)C(=O)CO [Dexamethasone]
Th17 differentiation and ROR-γt expression (Th17 differentiation): represses Th17 differentiation and ROR-γt expression | Tsc22d3 expression (Tsc22d3): induced
